# PubChem BioAssay (EPA / NIEHS)
# By UniProt entry, the sequences of proteins in these tests, tags left out. Where a name states a change or a piece, a line headed by the entry shows the natural chain unless it says otherwise.
# UniProt P60484: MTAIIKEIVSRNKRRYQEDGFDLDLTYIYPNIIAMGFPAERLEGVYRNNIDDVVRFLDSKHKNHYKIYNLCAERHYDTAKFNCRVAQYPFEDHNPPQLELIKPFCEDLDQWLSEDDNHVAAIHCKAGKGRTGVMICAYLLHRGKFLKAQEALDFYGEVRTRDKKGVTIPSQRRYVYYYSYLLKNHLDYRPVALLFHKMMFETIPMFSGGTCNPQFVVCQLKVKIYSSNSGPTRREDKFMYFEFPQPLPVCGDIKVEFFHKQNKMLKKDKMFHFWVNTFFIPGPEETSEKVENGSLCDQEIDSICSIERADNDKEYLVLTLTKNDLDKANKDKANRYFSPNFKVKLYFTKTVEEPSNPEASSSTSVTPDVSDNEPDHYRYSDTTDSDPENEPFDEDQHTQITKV
# Inconclusive results, whose numbers are uncertain, are shown with a selection of clear calls. Potencies of inconclusive entries are doubtful fits and often do not repeat. Calls of active or inactive are those of the source. How the source made its calls: active means hit-call score of the fitted dose curve at least 0.9, where 1 is the maximum; inconclusive means response in the unintended direction; inactive means score below 0.9.
# Molecular target: human Phosphatase and Tensin Homolog (PTEN), PTEN (gene 5728) (UniProt P60484)
# Experiment: NVS_ENZ_hPTEN: NovaScreen (NVS) Enzymatic Assay for human Phosphatase and Tensin Homolog (PTEN) (AID 2283203)
# How it was run: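 Loss of fluorescent product signal after mobility-shift separation reports PTEN activity, recombinant human enzyme, 1 h after compound addition. Single 25 uM duplicate screen, then concentration-response on actives; DMSO baseline.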
SMILES,AC50,outcome
O=c1cc[nH]cc1,inconclusive: 298 nM,
CCCCC(CC)COCCC#N (centres undefined),inconclusive: 148 nM,
O=C1C=CC(=O)O1,,inactive
[Cl][Eu]([Cl])[Cl],inconclusive: 469 nM,
CCc1cccc(CC)c1NC(=O)C(=O)O,inconclusive: 5980 nM,
NC(=O)C1CO1 (centres undefined),inconclusive: 82.4 nM,
Clc1cccc(Cl)n1,inconclusive: 536 nM,
Cc1cccc2c1ccc1ccccc12,active: 13800 nM,
Cc1ccc(C2OC[C@@H]3OC(c4ccc(C)cc4)O[C@H]([C@H](O)CO)[C@@H]3O2)cc1 (some centres undefined),inconclusive: 6470 nM,
CC1(C)S[C@@H]2[C@H](NC(=O)[C@H](N)c3ccccc3)C(=O)N2[C@H]1C(=O)O,inconclusive: 112 nM,
CCOC(OCC)C(=O)c1ccccc1,inconclusive: 143 nM,
CCc1cccc(C)c1N(C(=O)C(=O)O)C(C)COC (centres undefined),inconclusive: 278 nM,
CC=CC(=O)OCC(C)C,inconclusive: 158 nM,
CCCCC/C=C/C=C/C=O,active: 25000 nM,
CC1CNCC(C)O1 (centres undefined),inconclusive: 147 nM,
CCNc1nc(NC(C)(C)C)nc(OC)n1,,inactive
CC1(C)[C@H]2CC[C@]1(C)[C@H](O)C2,inconclusive: 25000 nM,
CCCC(C)CCC(C)=O (centres undefined),inconclusive: 6510 nM,
O=C1c2ccccc2C(=O)c2c(Cl)cccc21,inconclusive: 62.8 nM,
Clc1cccnc1,inconclusive: 25000 nM,

SMILES,AC50,outcome
C1=CCCC1,inconclusive: 25000 nM,
Cc1cccc(C)c1C,inconclusive: 25000 nM,
C=C1CC[C@H]2O[C@]2(C)CC[C@@H]2[C@@H]1CC2(C)C,,inactive
CCc1cccc(CC)c1,,inactive
CC(C)CCOCc1ccccc1,inconclusive: 2.29 nM,
CCN(CC)CC,active: 3580 nM,
OCCN1CN(CCO)CN(CCO)C1,inconclusive: 25000 nM,
C=C(C)CCCC,,inactive
CC/C=C\C#N,,inactive
C#CC(O)CCC (centres undefined),active: 25000 nM,
C1CCOC1,inconclusive: 116 nM,
Cc1cc(C)c(C=O)c(C)c1,inconclusive: 38200 nM,
CC1(C)[C@H](C(=O)OCc2cccc(Oc3ccccc3)c2)[C@@H]1C=C(Cl)Cl,active: 15700 nM,
CCCCN(C)C,inconclusive: 4900 nM,
CCC(C)C(=O)OC (centres undefined),,inactive
C=Cc1cccc(C)c1,inconclusive: 217 nM,
Cc1cccc(N(C)C)c1,inconclusive: 25000 nM,
O=C1OC2(c3cc(Br)c(O)c(Br)c3Oc3c2cc(Br)c(O)c3Br)c2c(Cl)c(Cl)c(Cl)c(Cl)c21,active: 851 nM,
CC(=O)O[C@@H]1C[C@@H]2CC[C@@]1(C)C2(C)C,inconclusive: 302 nM,

# 3 structures from above, arranged by SMILES length, high to low:
SMILES,AC50,outcome
O=C1OC2(c3cc(Br)c(O)c(Br)c3Oc3c2cc(Br)c(O)c3Br)c2c(Cl)c(Cl)c(Cl)c(Cl)c21,active: 851 nM,
CCCCC(CC)COCCC#N (centres undefined),inconclusive: 148 nM,
O=c1cc[nH]cc1,inconclusive: 298 nM,
